# Laboratory results from paper PMC5206647.
# T1: EvpB (recombinant) (E. piscicida EIB202)
# T1 sequence: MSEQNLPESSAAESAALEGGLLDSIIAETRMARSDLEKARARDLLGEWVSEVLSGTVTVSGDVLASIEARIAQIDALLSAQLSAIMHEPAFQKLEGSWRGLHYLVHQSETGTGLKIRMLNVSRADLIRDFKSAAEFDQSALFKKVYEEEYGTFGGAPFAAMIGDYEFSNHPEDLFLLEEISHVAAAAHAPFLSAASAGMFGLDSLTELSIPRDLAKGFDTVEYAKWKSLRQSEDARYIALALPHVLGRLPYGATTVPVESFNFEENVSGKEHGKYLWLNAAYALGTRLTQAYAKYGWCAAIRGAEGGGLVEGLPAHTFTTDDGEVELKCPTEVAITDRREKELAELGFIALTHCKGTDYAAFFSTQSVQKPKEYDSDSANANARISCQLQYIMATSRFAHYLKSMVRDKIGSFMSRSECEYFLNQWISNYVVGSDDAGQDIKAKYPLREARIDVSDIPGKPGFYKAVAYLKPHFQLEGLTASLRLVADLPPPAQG
# B1: EvpB (in the E. piscicida outer membrane protein fraction) (protein, UniProt A0AAU8P503 1-495)
# chain: T1 sequence
# Molecular target: T1, EvpB (recombinant) (E. piscicida EIB202)
# Experiment: far-Western, overlay or dot blot; purified recombinant bacterial outer membrane proteins transferred to NC membranes as bait; purified recombinant liver proteins as prey, one at a time; detected with mouse antisera against the liver proteins, HRP-conjugated secondary antibody, DAB; both purified
row,Molecule,binding
1,annexin max1 (recombinant),binds
2,immunoglobulin mu heavy chain (recombinant),binds
3,flavin-containing monooxygenase (recombinant) (enzyme),binds
4,cathepsin K (recombinant) (enzyme),binds
5,hyperosmotic glycine-rich protein (recombinant),binds
6,hemoglobin beta chain (recombinant),binds

# Molecular target: cathepsin K (recombinant) (not stated (Epinephelus coioides or Danio cDNA cloned))
# Experiment: co-IP; recombinant cathepsin K incubated with E. piscicida outer membrane proteins 2 h at room temperature; mouse antiserum against cathepsin K (pre-immune antiserum as control), nProtein A Sepharose 4 Fast Flow 12 h at 4 °C; eluted with glycine-HCl pH 2.4; blots with anti-EvpB, anti-ETAE_3048, anti-ETAE_0245; only the target purified
row,Molecule,binding
1,B1,binds

# Results are given in words; binding and its absence hold for the method and conditions named. Binding calls can cover weak binding; strength is not graded here. For some of these results: In cells and extracts the contact can be indirect.
